Measurements from publication PMC5364396.

Amino acid sequences for entries named in this document (tags omitted). Residues count along the entry.
UniProt Q9P2D1, residues 1-1899: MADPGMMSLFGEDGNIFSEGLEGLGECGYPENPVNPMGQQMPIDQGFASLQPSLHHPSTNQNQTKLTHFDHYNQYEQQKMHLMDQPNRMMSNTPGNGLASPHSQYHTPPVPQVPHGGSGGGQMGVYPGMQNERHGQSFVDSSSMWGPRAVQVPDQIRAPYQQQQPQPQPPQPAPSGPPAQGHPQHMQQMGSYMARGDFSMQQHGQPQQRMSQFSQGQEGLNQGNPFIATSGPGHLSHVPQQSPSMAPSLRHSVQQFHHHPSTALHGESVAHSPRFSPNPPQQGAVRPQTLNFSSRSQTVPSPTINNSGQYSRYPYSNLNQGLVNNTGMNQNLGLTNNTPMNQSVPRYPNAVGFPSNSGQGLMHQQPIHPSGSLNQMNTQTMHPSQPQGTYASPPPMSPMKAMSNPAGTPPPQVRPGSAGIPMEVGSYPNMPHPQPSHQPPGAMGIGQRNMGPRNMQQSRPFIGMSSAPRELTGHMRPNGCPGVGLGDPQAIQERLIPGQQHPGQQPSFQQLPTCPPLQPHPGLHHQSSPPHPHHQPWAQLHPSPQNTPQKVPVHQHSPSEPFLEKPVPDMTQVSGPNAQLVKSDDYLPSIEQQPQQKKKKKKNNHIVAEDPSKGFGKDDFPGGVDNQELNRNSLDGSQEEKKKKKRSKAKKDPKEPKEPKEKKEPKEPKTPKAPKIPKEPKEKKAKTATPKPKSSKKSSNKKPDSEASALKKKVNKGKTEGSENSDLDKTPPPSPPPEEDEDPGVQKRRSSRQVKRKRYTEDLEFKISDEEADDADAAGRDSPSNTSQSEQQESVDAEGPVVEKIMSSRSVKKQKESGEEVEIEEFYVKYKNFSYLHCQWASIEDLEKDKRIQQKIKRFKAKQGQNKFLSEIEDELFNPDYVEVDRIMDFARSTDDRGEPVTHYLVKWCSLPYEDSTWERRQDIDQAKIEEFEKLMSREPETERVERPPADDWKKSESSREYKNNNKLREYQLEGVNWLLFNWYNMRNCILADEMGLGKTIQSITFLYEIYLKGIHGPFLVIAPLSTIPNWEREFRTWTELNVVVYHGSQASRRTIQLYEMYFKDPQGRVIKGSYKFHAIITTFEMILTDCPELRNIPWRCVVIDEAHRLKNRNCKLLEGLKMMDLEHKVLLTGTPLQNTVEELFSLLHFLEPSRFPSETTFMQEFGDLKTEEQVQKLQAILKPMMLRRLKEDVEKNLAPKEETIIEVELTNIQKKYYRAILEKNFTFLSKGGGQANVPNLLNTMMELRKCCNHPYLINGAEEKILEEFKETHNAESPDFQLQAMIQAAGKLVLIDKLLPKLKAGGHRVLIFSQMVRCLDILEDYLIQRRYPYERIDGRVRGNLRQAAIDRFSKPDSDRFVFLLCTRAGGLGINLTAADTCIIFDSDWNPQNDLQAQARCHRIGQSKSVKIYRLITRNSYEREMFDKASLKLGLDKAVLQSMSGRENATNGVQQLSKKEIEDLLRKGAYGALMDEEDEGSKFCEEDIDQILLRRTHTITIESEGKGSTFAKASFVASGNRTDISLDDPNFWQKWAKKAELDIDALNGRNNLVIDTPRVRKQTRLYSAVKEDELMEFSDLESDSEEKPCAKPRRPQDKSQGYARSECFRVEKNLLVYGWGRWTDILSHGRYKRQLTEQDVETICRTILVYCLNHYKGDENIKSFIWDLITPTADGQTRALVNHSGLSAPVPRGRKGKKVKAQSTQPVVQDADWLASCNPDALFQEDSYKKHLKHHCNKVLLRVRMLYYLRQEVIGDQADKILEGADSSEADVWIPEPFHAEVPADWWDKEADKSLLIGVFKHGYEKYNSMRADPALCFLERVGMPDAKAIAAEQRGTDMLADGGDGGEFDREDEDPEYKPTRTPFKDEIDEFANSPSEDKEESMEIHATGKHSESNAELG
UniProt Q9HCK8: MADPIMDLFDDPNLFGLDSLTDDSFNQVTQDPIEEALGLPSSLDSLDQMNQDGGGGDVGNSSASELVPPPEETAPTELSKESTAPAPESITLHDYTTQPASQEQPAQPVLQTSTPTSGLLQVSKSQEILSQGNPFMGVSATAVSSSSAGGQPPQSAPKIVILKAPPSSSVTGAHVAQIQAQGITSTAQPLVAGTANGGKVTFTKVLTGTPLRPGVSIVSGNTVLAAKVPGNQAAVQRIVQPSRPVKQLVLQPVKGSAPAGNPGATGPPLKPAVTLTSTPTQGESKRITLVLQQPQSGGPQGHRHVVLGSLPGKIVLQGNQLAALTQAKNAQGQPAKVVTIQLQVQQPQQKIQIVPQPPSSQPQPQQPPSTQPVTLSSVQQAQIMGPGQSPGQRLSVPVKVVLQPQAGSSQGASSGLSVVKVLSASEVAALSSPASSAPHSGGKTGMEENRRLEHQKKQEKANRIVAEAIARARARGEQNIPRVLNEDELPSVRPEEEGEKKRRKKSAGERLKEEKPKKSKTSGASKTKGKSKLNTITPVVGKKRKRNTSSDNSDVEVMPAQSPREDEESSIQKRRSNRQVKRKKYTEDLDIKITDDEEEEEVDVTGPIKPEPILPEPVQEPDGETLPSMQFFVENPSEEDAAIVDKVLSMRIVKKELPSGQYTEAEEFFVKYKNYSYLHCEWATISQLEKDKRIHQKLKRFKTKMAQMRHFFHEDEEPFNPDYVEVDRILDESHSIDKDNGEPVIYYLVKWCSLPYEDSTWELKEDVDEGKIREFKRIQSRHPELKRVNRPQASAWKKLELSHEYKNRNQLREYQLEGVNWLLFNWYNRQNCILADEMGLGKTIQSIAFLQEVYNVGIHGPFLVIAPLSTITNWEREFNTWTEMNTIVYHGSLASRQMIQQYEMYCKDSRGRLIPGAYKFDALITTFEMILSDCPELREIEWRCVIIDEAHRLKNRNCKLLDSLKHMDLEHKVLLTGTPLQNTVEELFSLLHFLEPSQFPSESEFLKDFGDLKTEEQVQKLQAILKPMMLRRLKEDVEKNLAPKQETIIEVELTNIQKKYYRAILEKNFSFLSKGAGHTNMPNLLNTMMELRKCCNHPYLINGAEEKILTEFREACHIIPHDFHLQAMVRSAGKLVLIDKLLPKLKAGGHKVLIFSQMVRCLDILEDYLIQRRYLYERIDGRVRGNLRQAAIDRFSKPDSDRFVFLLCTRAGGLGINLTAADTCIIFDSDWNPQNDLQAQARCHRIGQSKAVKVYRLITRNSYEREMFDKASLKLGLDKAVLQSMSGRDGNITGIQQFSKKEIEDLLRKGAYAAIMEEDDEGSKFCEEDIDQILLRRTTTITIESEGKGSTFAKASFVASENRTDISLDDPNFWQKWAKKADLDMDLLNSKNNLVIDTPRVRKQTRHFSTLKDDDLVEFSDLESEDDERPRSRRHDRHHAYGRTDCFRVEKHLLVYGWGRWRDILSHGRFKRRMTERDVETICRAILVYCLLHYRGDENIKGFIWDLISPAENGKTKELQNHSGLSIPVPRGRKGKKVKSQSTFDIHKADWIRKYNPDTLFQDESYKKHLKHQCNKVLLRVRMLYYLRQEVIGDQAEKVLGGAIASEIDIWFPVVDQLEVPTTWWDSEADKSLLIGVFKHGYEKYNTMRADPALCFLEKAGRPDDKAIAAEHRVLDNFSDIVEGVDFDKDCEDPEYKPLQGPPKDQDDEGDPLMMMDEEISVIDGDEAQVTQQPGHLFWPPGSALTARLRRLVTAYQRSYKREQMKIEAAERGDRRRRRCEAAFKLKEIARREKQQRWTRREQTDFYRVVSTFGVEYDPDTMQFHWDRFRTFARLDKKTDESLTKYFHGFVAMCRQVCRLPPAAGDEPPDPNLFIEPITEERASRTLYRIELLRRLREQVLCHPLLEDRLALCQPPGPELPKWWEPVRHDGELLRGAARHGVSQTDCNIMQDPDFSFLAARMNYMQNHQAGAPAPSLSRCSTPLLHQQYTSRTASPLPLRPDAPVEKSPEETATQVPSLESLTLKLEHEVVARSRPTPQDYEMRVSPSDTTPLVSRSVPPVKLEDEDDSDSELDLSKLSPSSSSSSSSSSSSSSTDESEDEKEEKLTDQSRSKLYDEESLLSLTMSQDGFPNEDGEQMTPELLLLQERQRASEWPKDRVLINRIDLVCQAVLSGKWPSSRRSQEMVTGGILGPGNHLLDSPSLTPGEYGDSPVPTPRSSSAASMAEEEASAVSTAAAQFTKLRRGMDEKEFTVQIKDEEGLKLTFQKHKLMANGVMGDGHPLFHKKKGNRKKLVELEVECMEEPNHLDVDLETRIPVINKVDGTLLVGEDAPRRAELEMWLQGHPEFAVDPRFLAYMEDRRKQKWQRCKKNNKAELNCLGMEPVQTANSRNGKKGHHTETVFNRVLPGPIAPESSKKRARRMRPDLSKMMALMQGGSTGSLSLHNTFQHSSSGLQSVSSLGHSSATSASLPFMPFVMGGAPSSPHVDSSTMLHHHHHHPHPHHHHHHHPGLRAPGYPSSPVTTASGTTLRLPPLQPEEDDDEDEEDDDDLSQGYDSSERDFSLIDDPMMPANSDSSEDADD
UniProt P09874: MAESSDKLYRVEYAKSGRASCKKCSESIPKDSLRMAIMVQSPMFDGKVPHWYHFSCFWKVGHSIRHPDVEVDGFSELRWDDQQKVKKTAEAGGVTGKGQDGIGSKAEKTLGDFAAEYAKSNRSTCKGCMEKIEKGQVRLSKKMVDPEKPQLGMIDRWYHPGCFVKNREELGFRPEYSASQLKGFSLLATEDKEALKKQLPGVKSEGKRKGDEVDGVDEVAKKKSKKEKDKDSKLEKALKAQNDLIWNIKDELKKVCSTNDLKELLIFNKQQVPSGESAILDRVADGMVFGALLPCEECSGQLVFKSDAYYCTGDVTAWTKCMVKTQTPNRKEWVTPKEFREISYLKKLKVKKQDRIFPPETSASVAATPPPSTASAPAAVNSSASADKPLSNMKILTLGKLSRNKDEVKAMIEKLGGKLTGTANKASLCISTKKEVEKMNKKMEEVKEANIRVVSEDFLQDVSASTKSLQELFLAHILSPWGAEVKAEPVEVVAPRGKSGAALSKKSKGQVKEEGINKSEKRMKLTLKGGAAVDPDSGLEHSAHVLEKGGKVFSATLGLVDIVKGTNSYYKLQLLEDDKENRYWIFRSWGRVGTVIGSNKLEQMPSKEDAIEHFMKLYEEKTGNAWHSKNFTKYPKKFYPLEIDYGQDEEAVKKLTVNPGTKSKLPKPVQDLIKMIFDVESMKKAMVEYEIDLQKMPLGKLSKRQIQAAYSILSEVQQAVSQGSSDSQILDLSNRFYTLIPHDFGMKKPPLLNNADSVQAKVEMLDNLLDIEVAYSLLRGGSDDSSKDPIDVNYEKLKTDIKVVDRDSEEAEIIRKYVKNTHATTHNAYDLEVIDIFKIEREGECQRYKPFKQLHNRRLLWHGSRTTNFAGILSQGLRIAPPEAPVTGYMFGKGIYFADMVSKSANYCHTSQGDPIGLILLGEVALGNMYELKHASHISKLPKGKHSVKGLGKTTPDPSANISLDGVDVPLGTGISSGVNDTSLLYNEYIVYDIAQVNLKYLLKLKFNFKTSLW
UniProt P11387: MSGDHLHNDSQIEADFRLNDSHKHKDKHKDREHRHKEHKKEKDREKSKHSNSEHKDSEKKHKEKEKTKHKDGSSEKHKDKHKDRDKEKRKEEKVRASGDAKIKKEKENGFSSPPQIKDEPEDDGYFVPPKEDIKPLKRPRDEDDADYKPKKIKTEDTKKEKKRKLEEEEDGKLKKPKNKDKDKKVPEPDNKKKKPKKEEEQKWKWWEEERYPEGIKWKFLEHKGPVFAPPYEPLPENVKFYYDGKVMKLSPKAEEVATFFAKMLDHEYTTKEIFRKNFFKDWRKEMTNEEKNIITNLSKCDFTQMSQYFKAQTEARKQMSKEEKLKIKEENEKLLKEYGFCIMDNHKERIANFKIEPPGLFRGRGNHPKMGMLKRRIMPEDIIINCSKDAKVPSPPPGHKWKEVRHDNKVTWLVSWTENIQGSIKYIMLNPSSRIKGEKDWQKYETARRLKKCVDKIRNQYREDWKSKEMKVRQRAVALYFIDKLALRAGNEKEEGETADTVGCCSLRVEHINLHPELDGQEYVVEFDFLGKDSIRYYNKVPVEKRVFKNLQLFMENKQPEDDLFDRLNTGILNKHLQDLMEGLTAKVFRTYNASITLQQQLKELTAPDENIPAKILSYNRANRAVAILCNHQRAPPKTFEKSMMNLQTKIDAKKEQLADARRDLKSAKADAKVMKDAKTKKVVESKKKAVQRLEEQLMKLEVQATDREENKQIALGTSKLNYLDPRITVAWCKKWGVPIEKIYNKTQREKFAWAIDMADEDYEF

Biological target: Flag-tagged, truncated CHD7 (1-1,899 amino acids) (human) (UniProt Q9P2D1)
Assay: affinity purification with mass spectrometry; Flag-tagged CHD7 (1-1,899) precipitated with M2 agarose from Benzonase-treated nuclear extracts of CHD7 KO HEK293T cells; eluted with 3x Flag peptides in IP buffer with 300 mM NaCl; Orbitrap XL; mock: empty vector

Row | binding | Substance
1 | binds | BRG1, endogenous in HEK293T (from UniProt P51532 1-1647)
2 | binds | CHD8, endogenous in HEK293T (from UniProt Q9HCK8 1-2581)

The remaining lines, values behind:

Row | Substance | binding
3 | PARP1, endogenous in HEK293T (from UniProt P09874 1-1014) (enzyme) | binds
4 | TOP2B (DNA topoisomerase IIb), endogenous in HEK293T (from UniProt Q02880 1-1626) (enzyme) | binds
5 | TOP1, endogenous in HEK293T (from UniProt P11387 1-765) (enzyme) | binds

No constants are given. Whether binding was seen depends on the method and setting. In cells and extracts the contact can be indirect. A yes stands for co-enrichment or nearness to the bait. Other partners may have been found.
